Laboratory results from PMC3621835.
No constants are given. Whether binding was seen depends on the method and setting. For some assays here: Binding seen in cells or lysates may run through a third protein. Some results given as binding are weak or reduced against the parent protein; the word gives no strength.

Chains of the proteins cited; added tags and fusions are not shown. Residues count along the entry.
UniProt P14211, residues 18-416: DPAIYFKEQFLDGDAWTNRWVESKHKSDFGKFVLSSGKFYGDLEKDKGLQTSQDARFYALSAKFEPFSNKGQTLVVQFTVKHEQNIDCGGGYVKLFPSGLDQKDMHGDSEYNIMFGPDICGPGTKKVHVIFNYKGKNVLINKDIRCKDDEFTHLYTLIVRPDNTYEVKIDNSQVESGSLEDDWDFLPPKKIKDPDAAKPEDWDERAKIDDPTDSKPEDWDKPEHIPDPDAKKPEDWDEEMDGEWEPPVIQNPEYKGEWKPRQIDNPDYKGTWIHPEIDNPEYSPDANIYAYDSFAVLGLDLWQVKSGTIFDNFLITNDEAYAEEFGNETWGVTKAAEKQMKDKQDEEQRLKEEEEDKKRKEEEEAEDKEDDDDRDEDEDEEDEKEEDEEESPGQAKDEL
UniProt P57716, residues 28-708: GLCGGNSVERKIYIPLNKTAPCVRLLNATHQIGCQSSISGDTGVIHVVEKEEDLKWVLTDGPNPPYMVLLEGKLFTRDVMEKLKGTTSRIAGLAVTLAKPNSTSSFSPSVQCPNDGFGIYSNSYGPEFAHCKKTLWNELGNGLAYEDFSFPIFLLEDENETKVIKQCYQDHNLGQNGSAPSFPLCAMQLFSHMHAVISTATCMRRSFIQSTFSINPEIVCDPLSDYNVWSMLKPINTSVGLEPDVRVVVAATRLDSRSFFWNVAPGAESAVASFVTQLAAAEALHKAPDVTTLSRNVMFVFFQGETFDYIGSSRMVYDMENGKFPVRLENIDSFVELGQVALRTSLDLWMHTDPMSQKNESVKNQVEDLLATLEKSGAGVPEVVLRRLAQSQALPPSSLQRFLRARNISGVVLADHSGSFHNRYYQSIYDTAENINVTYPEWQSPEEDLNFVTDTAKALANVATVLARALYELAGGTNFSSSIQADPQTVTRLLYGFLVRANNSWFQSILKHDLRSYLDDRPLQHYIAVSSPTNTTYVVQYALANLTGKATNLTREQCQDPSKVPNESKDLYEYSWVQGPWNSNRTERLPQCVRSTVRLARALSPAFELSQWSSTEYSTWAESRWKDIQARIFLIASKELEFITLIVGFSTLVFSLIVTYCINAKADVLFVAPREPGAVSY
UniProt P15253, residues 18-418: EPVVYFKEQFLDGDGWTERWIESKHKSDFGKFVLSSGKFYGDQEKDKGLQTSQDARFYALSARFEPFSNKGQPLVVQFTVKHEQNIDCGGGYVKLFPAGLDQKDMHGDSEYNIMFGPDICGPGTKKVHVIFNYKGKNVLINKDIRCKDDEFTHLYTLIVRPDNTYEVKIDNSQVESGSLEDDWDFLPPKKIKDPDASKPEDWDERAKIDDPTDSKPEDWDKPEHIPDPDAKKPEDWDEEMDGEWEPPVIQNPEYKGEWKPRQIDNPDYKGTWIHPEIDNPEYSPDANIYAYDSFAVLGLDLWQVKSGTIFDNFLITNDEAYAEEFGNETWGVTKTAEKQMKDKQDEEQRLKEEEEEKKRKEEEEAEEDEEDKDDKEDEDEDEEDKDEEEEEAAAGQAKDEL
UniProt Q92542, residues 34-709: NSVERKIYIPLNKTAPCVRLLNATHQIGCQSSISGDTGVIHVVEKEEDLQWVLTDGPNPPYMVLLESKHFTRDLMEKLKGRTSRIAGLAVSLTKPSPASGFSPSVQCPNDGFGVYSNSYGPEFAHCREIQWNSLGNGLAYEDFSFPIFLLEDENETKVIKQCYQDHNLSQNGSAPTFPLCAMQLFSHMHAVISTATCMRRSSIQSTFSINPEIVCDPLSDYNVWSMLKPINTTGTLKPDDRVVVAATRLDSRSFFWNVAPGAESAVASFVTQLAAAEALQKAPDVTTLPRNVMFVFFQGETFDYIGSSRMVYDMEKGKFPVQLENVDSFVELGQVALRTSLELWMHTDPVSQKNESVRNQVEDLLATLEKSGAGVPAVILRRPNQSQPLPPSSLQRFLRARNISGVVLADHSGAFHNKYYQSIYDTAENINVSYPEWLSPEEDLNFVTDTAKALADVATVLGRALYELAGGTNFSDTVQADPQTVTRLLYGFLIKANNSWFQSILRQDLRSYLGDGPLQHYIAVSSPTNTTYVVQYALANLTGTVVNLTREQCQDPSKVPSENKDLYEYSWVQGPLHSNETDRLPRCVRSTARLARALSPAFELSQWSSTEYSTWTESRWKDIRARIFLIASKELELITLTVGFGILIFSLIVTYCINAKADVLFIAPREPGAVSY
UniProt P05067, residues 18-770: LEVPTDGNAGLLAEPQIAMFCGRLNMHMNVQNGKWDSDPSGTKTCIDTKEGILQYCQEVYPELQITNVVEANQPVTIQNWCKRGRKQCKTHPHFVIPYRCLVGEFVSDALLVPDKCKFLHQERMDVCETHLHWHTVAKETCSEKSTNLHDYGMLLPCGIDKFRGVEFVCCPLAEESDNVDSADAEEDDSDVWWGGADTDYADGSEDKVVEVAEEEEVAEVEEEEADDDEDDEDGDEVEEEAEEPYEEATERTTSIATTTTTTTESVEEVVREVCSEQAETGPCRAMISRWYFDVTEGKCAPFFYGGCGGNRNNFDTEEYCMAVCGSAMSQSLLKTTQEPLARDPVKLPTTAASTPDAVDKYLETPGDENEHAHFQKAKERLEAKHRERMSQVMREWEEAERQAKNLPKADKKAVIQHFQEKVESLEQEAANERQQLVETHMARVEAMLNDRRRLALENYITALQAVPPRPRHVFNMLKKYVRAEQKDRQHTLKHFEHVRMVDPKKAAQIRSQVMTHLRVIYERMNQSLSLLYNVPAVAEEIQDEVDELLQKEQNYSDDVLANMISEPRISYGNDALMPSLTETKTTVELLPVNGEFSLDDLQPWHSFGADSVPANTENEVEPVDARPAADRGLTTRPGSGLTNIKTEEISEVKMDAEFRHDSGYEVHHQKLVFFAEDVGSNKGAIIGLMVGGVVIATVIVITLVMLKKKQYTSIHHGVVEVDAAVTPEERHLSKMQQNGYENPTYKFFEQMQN

How the values were obtained:
[1] = target: calreticulin (endogenous, mouse brain synaptosomal fraction) (mouse (endogenous in brain synaptosomal fraction)) (UniProt P14211); assay: co-IP; detergent extract (1% N-octyl β-D-glucopyranoside) of a synaptosomal fraction from mouse brain; antibodies 3 h at 4°C, Protein A/G beads overnight; Western blot
[2] = target: amyloid precursor protein (endogenous, mouse brain) (mouse (endogenous in brain synaptosomal fraction and brain homogenate)) (UniProt P12023); assay: as above
[3] = target: nicastrin (endogenous, mouse brain synaptosomal fraction) (mouse (endogenous in brain synaptosomal fraction)) (UniProt P57716); assay: as above
[4] = target: T1, synthetic biotinylated APP-β peptide comprising the β-secretase cleavage site of APP; assay: ELISA; biotinylated APP-γ or APP-β peptide coated; recombinant calreticulin at different concentrations in PBS-T with 1% BSA, 1 mM CaCl2, 1 mM MgCl2, 1 mM MnCl2, 1 h, room temperature; calreticulin antibody CRT283 and HRP-coupled secondary antibody; both purified
T1 sequence (peptide, biotin on the N-terminus (biotin-TNIK...HQKC-OH)): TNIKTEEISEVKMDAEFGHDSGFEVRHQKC

[5] = target: GST fusion protein comprising full-length calreticulin (rabbit) (UniProt P15253); assay: pull-down; GST or GST-calreticulin fusion proteins on glutathione-agarose beads with solubilized membranes of HEK cells overexpressing presenilin, overnight at 4°C; Western blot with presenilin antibody 2953 or nicastrin antibody; only the target purified
[6] = target: GST fusion protein comprising full-length calreticulin (rabbit) (UniProt P15253); assay: pull-down; GST or GST-calreticulin fusion proteins on glutathione-agarose beads with lysates of CHO cells overexpressing full-length APP (no Ca2+ or EGTA added) or expressing the C99 APP stump, overnight at 4°C; Western blot; only the target purified
[7] = target: GST fusion protein comprising full-length calreticulin (rabbit) (UniProt P15253); assay: pull-down; GST or GST/calreticulin on glutathione-agarose beads with lysate of APP overexpressing CHO cells in the presence of Ca2+ or EGTA, overnight at 4°C; Western blot with 22C11; only the target purified

nicastrin (endogenous, mouse brain synaptosomal fraction) (from UniProt P57716 28-708)
binding [1]: binds

calreticulin (endogenous, mouse brain synaptosomal fraction) (from UniProt P14211 18-416)
binding [2]: binds
binding [3]: binds weakly

recombinant rabbit calreticulin (from UniProt P15253 18-418)
binding [4]: no binding

amyloid precursor protein (endogenous, mouse brain) (from UniProt P12023 18-770)
binding [1]: binds

nicastrin (HEK cells overexpressing presenilin) (from UniProt Q92542 34-709)
binding [5]: binds

full-length amyloid precursor protein overexpressed in CHO cells (from UniProt P05067 18-770)
binding [6]: binds
binding [7]: binds
